Data published in PubChem BioAssay AID2685 (National Center for Advancing Translational Sciences (NCATS), 2010).
The other results are listed elsewhere or left out. These are further read-outs of the screen, such as a control signal, another cell line or another target. No call is given for them. Most of these compounds were active or inconclusive in the main read-out, so they are no random draw. The note in brackets gives the kind of curve behind each potency; many fits are weak.

Test: qHTS Assay for Lipid Storage Modulators in Drosophila S3 Cells;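 for cell number change: cells counted by Cell Tracker Red CMTPX staining in the red channel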
Conditions: BODIPY lipid droplet fluorescence, 18-24 h; for cell number change: measured here: cell count max response, cells fed with added oleic acid
Summary of the method: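 Laser-scanning cytometry quantifies lipid droplet accumulation (500–530 nm total intensity; droplet/cell object ratio) in oleic acid-fed (400 uM added) Drosophila S3 cells treated with a concentration series. 20 uM Triacsin C defined 100% inhibition.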

[1] = measured here: cell number channel AC50, cells fed with added oleic acid
[2] = measured here: lipid fluorescence (Fed channel) AC50, cells fed with added oleic acid

Row | SMILES | cell number change | AC50 [1] | AC50 [2]
1 | COc1cc2ccccc2cc1C(=O)N(CCN(C)C)c1nc2c(F)cc(F)cc2s1 | 12.2% | 0.0411 µM [rising, full curve, poor fit] | 32.6 µM [rising, single point]
2 | CC(=O)Nc1ccc(C(=O)Nc2cccc(S(=O)(=O)N(C)c3ccccc3)c2)cc1 | -20.8% | – | 0.411 µM [falling, full curve, poor fit]
3 | CC(C)(C)[C@@H]1C=C(C(=O)N2CCN(Cc3ccc4c(c3)OCO4)CC2)O[C@H](OCc2ccc(CO)cc2)C1 | -5.65% | – | 23.1 µM [falling, partial curve, poor fit]
4 | COC(=O)c1c(NC(=O)COC(=O)c2ccc(O)cc2)sc2c1CCCCC2 | -77.8% | 23.1 µM [falling, partial curve, poor fit] | 20.6 µM [falling, partial curve, poor fit]
5 | CC(=O)C1=C(C)NC(SCC(=O)c2ccc(F)cc2)=C(C#N)C1CC(C)C (stereo not drawn) | – | 0.13 µM [rising, full curve, poor fit] | 3.66 µM [rising, full curve]
6 | CCN(CC)CCN1C(=O)C(=O)/C(=C(/O)c2ccc(S(=O)(=O)N3CCOCC3)cc2)C1c1ccc(C(C)C)cc1 (stereo not drawn) | 22.7% | – | –
7 | O=C(CSc1nnc(NC(=O)c2ccc(F)cc2F)s1)NC1CC1 | 18.4% | – | 8.2 µM [rising, partial curve]
8 | Cc1cc(C)n2nc(C(=O)N/N=C/c3ccccc3C)nc2n1 | -22% | – | 18.4 µM [falling, partial curve]
9 | CCN(C(=O)C1CCCN(c2ncnc3c2nc2n3CCCCC2)C1)c1cccc(Cl)c1 (stereo not drawn) | -30.6% | 0.411 µM [falling, full curve, poor fit] | –
10 | CCCCCCN1C2=NCCN2c2ccccc21 | 15.2% | – | 6.51 µM [rising, single point]
11 | Cc1cc(C)n(Cc2n[nH]c(=S)n2Cc2ccccc2)n1 | 149% | – | –
12 | Cc1ccc(O)c(NC(=O)c2onc(C)c2Cl)c1 | – | – | 29.1 µM [falling, single point]
13 | CC(=O)Nc1cccc(OCC(=O)Nc2ccccc2)c1 | -29.4% | – | 18.4 µM [rising, single point]
14 | COc1ccc(-n2c(SC3CCOC3=O)nc3ccccc32)cc1 (stereo not drawn) | 21.6% | – | 0.146 µM [rising, full curve, poor fit]
15 | COc1cccc(-n2c(Cn3nc(C(F)F)cc3C(F)F)n[nH]c2=S)c1 | 53.7% | 29.1 µM [rising, single point] | 0.146 µM [rising, full curve, poor fit]
16 | CCCCNC(=O)c1ccc2c(c1)S(=O)(=O)c1ccccc1C2=O | 17.8% | – | 11.6 µM [rising, partial curve]
17 | COc1ccc(NC(=O)CSc2nnc(-c3ccccc3F)n2C2CC2)cc1S(N)(=O)=O | – | 0.13 µM [rising, full curve] | 0.116 µM [rising, full curve, poor fit]
18 | O=C(c1cccc2nccnc12)N1CCCC(Nc2ccc(F)c(F)c2)C1 (stereo not drawn) | 13.5% | – | 29.1 µM [rising, single point]
19 | CC(C)c1ccc(NC(=O)N(CCc2nc3ccccc3[nH]2)C2CCCC2)cc1 | 4.55% | – | –
20 | Cn1c(-c2ccc(C=O)s2)nc2c3ccccc3c3ccccc3c21 | – | 0.651 µM [rising, single point] | 0.58 µM [rising, single point]
21 | CCOC(=O)CSc1nnc([C@@H](NC(=O)OC(C)(C)C)C(C)C)o1 | 3.47% | 6.51 µM [rising, single point] | –

Part of the list above in order of formula weight, low to high.
Row | SMILES | cell number change | AC50 [1] | AC50 [2]
10 | CCCCCCN1C2=NCCN2c2ccccc21 | 15.2% | – | 6.51 µM [rising, single point]
4 | COC(=O)c1c(NC(=O)COC(=O)c2ccc(O)cc2)sc2c1CCCCC2 | -77.8% | 23.1 µM [falling, partial curve, poor fit] | 20.6 µM [falling, partial curve, poor fit]
1 | COc1cc2ccccc2cc1C(=O)N(CCN(C)C)c1nc2c(F)cc(F)cc2s1 | 12.2% | 0.0411 µM [rising, full curve, poor fit] | 32.6 µM [rising, single point]

Following part:

Row | SMILES | cell number change | AC50 [1] | AC50 [2]
22 | CC(C)CCNC(=O)C1CCN(S(=O)(=O)c2ccc3nc4c(c(C(=O)O)c3c2)CCCCC4)CC1 | – | 1.84 µM [falling, partial curve] | –
23 | COc1ccc(-n2c(C(C)(C)C)csc2=Nc2c(C)n(C)n(-c3ccccc3)c2=O)cc1 | -4.74% | – | 0.326 µM [falling, full curve, poor fit]
24 | CCC(C)NC(=O)c1ccccc1NS(=O)(=O)c1ccc(OC)c(OC)c1 (stereo not drawn) | -1.97% | – | 32.6 µM [rising, single point]
25 | Cc1ccc(/C=C/C(=O)c2ccc(N3CCOCC3)cc2)s1 | – | – | 0.517 µM [rising, partial curve, poor fit]
26 | Cc1cc2cc(CNC(=O)COc3ccccc3)ccc2n1C | 16.3% | – | –
27 | Cc1ccc(S(=O)(=O)N(CC(=O)O)Cc2ccccc2F)cc1 | – | – | 2.06 µM [falling, partial curve]
28 | Cc1ccc(NC(=O)c2ccc(OCc3c(C)noc3C)cc2)nc1 | 1.17% | – | 0.184 µM [rising, full curve, poor fit]
29 | CCC1(C)Cc2ccccc2-c2nc3n(c(=O)c21)CCCCC3 (stereo not drawn) | – | 0.58 µM [falling, single point] | –
30 | O=C(COC(=O)c1ccccc1Nc1cccc(C(F)(F)F)c1)NCc1ccco1 | – | – | 0.184 µM [falling, full curve, poor fit]
31 | CC(C)N(Cc1nccn1C)C(=O)c1ccc(OC2CCN(C(=O)C3CC3)CC2)cc1 | -1.56% | – | 3.66 µM [falling, full curve, poor fit]
32 | Cc1ccc(N2C(=O)NC(NC(=O)C3CC3)(C(F)(F)F)C2=O)cc1 (stereo not drawn) | – | – | 3.66 µM [rising, single point]
33 | Cc1nc(CNC(=O)CC2C(=O)NCCN2Cc2ccoc2)nc2c1CCCC2 (stereo not drawn) | -9.03% | 0.00517 µM [falling, full curve, poor fit] | –
34 | CCOC(=O)c1ccccc1NC(=O)Nc1ccc(OC)c(OC)c1 | – | – | 0.82 µM [falling, single point]
35 | Cc1c2cnn(CC(=O)Nc3c(F)c(F)cc(F)c3F)c(=O)c2c(C)n1Cc1ccc(F)cc1 | 26.2% | – | –
36 | O=C(CN1CCN(Cc2ccccc2)CC1)N/N=C/c1cccs1 | 8.45% | 3.66 µM [falling, single point] | 4.11 µM [falling, single point]
37 | CC1CC1C(=O)OCC(=O)NC(=O)c1ccccc1 (stereo not drawn) | 0.226% | – | 0.651 µM [rising, partial curve]
38 | CCOC(=O)[C@H](CCc1ccccc1)N[C@@H](C)C(=O)N1C(C(=O)O)C[C@@H]2CCC[C@@H]21 (stereo partly drawn) | 33.5% | 13 µM [rising, single point] | 9.2 µM [rising, partial curve]
39 | CCOc1cc(-c2nc(-c3ccncc3)no2)cc(OCC)c1OCC | 2.92% | – | 0.13 µM [rising, full curve, poor fit]
40 | C#CC[N+](CC)(CC)CC#Cc1cccc(Cl)c1 | 0.64% | – | 18.4 µM [falling, single point]
41 | O=C(CN1C(=O)NC2(CCCC2)C1=O)OCc1ccc(Cl)cc1Cl | -75% | 29.1 µM [falling, single point] | 29.1 µM [falling, single point]
42 | CN(C(=O)COC(=O)c1ccc([N+](=O)[O-])cc1)c1ccccc1 | 40.2% | – | –

Row | SMILES | cell number change | AC50 [1] | AC50 [2]
43 | COc1cc(C2C(C(=O)c3ccco3)=C(O)C(=O)N2Cc2ccccc2)ccc1O (stereo not drawn) | -20.5% | – | –
44 | CCN(CC)CCNC(=O)c1ccc(NC(=O)c2ccc(F)cc2)cc1 | -31.8% | 0.326 µM [falling, full curve] | 0.326 µM [falling, full curve, poor fit]
45 | COc1ccccc1CC(=O)N1CCN(c2cccc(Cl)c2)CC1 | 18.1% | – | –
46 | COc1cccc(NC(=O)CN(C)C(=O)CN2C(=O)NC3(CCCC3)C2=O)c1 | 7.3% | – | 11.6 µM [rising, partial curve, poor fit]
47 | Cc1ccc2nc(C)cc(C(=O)N3CCCC(N4CCN(c5ccccc5C)CC4)C3)c2c1 (stereo not drawn) | – | – | 0.112 µM [rising, full curve, poor fit]
48 | O=C1NCCCCC1NS(=O)(=O)c1cccc(C(F)(F)F)c1 (stereo not drawn) | 4.23% | – | –
49 | Cc1cc(C)c(S(=O)(=O)Nc2ccc3[nH]c(=O)[nH]c3c2)c(C)c1 | -1.83% | 0.326 µM [rising, partial curve] | –
50 | Cc1noc2ncnc(Oc3ccccc3Cl)c12 | -30.4% | – | –
51 | O=C1N[C@@H](Cc2cnc[nH]2)C(=O)N2CCC[C@@H]12 | -14.4% | 0.0517 µM [falling, full curve, poor fit] | 29.1 µM [rising, single point]
52 | COc1ccccc1CN(C)C(=O)CSc1nnc(C2CC2)n1C1CC1 | -7.51% | – | –
53 | COc1ccc2oc(C(=O)OCC(=O)NCc3ccco3)c(C)c2c1 | -0.905% | – | 29.1 µM [falling, single point]
54 | COc1cc(CNC2CCC(C)C2)cc(OC)c1 (stereo not drawn) | -17.1% | – | –
55 | COc1cccc(NC(=O)c2ccccc2NS(C)(=O)=O)c1 | – | – | 0.13 µM [falling, full curve, poor fit]
56 | CCCCOC(=O)C(C#N)c1nc2ccccc2nc1N1CCOCC1 (stereo not drawn) | -27.6% | – | –
57 | COC(=O)c1ccc(CNC(=O)CNc2cc(C(F)(F)F)ccc2N2CCOCC2)cc1 | -22.5% | – | 0.00517 µM [rising, full curve, poor fit]
58 | O=C(NNC(=S)NCc1ccccc1)c1ccc2c(c1)OCO2 | -60.7% | 29.1 µM [falling, single point] | 29.1 µM [falling, single point]
59 | CNc1nc(C)c(C(=O)OCc2ccccc2)s1 | 7.94% | – | 2.06 µM [rising, full curve]
60 | Cc1ccc(S(=O)(=O)N2CCC3(CC2)OCCO3)cc1 | 6.44% | – | 29.1 µM [rising, single point]
61 | CCOc1ccc(NC(=O)CN(C)C(=O)C(C)N2C(=O)c3ccccc3C2=O)cc1OCC (stereo not drawn) | -2.98% | – | 11.6 µM [rising, partial curve, poor fit]
